Results are given in words; binding and its absence hold for the method and conditions named. In cells and extracts the contact can be indirect. Some binding calls cover weakened binding; strength is not graded here.
What was measured:
[1] = target: hypoxia inducible factor-1α (HIF-1α), endogenous (human (endogenous in RPMI, U266 and 293T)) (UniProt Q16665); test: co-IP; 293T cells cultured in a hypoxia condition; endogenous proteins (Supplementary Figure 10d)
[2] = target: HIF-1α in 293T cells with exogenous TRIM44 (Supplementary Figure 10c) (UniProt Q16665); test: co-IP; 293T cells with exogenous TRIM44 expression (Supplementary Figure 10c); details not shown
[3] = target: hypoxia inducible factor-1α (HIF-1α), endogenous (human (endogenous in RPMI, U266 and 293T)) (UniProt Q16665); test: co-IP; TRIM44^OE RPMI, U266 and 293T cells cultured in hypoxia for 4 h; immunoprecipitated with IgG or HIF-1α antibodies, immunoblotted with TRIM44 or HIF-1α antibodies

Sequences of proteins named here, by UniProt entry; tags and fusion partners are left off.
UniProt Q16665: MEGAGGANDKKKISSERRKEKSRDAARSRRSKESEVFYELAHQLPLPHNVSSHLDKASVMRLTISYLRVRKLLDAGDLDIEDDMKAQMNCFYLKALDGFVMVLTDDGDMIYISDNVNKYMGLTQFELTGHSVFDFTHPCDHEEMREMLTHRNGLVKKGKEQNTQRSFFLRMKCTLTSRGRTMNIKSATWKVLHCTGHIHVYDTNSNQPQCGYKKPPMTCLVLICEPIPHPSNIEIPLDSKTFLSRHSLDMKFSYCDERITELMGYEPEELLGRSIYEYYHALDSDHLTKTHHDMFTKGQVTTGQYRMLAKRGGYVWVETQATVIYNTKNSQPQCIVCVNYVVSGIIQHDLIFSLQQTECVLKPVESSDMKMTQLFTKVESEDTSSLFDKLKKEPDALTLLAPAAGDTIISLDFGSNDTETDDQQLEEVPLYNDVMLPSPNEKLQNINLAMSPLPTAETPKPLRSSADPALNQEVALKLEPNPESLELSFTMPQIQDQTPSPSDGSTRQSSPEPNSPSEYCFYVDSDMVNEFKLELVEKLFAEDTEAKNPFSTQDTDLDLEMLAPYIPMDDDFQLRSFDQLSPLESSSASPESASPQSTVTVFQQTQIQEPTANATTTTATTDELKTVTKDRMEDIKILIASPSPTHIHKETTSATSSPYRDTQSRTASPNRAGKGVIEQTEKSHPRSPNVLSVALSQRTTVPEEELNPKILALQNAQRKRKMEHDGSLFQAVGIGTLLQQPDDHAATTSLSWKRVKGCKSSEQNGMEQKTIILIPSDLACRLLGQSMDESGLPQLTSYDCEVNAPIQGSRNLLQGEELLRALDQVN
UniProt Q96DX7: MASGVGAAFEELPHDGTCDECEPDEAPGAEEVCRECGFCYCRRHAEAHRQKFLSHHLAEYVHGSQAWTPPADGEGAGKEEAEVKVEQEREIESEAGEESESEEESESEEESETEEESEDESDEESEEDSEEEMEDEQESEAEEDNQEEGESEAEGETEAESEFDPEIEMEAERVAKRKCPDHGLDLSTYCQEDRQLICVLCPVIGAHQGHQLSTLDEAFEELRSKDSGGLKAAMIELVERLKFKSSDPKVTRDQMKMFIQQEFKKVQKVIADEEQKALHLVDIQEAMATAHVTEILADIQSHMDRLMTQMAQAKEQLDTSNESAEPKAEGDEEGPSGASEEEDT

“TRIM44, endogenous in 293T cells (from UniProt Q96DX7 1-344)” was tested, and the binding [1] was “binds”.

For “exogenous TRIM44 expressed in 293T cells (from UniProt Q96DX7 1-344)”, the binding [2] was “binds”.

With “tripartite motif containing 44 (TRIM44), overexpressed by lentivirus (TRIM44^OE cells) (from UniProt Q96DX7 1-344)” the binding [3] was “binds”.

— article PMC6365383
